According to the supplement of paper PMC12067093, “Discovery and optimisation of a covalent ligand for TRIM25 and its application to targeted protein ubiquitination” (Chemical Science, 2025):
Some of the results follow.

Amino acid sequences for entries named in this document (tags omitted). A change or cut given only in a name is not applied to a line headed by its entry.
UniProt P46013: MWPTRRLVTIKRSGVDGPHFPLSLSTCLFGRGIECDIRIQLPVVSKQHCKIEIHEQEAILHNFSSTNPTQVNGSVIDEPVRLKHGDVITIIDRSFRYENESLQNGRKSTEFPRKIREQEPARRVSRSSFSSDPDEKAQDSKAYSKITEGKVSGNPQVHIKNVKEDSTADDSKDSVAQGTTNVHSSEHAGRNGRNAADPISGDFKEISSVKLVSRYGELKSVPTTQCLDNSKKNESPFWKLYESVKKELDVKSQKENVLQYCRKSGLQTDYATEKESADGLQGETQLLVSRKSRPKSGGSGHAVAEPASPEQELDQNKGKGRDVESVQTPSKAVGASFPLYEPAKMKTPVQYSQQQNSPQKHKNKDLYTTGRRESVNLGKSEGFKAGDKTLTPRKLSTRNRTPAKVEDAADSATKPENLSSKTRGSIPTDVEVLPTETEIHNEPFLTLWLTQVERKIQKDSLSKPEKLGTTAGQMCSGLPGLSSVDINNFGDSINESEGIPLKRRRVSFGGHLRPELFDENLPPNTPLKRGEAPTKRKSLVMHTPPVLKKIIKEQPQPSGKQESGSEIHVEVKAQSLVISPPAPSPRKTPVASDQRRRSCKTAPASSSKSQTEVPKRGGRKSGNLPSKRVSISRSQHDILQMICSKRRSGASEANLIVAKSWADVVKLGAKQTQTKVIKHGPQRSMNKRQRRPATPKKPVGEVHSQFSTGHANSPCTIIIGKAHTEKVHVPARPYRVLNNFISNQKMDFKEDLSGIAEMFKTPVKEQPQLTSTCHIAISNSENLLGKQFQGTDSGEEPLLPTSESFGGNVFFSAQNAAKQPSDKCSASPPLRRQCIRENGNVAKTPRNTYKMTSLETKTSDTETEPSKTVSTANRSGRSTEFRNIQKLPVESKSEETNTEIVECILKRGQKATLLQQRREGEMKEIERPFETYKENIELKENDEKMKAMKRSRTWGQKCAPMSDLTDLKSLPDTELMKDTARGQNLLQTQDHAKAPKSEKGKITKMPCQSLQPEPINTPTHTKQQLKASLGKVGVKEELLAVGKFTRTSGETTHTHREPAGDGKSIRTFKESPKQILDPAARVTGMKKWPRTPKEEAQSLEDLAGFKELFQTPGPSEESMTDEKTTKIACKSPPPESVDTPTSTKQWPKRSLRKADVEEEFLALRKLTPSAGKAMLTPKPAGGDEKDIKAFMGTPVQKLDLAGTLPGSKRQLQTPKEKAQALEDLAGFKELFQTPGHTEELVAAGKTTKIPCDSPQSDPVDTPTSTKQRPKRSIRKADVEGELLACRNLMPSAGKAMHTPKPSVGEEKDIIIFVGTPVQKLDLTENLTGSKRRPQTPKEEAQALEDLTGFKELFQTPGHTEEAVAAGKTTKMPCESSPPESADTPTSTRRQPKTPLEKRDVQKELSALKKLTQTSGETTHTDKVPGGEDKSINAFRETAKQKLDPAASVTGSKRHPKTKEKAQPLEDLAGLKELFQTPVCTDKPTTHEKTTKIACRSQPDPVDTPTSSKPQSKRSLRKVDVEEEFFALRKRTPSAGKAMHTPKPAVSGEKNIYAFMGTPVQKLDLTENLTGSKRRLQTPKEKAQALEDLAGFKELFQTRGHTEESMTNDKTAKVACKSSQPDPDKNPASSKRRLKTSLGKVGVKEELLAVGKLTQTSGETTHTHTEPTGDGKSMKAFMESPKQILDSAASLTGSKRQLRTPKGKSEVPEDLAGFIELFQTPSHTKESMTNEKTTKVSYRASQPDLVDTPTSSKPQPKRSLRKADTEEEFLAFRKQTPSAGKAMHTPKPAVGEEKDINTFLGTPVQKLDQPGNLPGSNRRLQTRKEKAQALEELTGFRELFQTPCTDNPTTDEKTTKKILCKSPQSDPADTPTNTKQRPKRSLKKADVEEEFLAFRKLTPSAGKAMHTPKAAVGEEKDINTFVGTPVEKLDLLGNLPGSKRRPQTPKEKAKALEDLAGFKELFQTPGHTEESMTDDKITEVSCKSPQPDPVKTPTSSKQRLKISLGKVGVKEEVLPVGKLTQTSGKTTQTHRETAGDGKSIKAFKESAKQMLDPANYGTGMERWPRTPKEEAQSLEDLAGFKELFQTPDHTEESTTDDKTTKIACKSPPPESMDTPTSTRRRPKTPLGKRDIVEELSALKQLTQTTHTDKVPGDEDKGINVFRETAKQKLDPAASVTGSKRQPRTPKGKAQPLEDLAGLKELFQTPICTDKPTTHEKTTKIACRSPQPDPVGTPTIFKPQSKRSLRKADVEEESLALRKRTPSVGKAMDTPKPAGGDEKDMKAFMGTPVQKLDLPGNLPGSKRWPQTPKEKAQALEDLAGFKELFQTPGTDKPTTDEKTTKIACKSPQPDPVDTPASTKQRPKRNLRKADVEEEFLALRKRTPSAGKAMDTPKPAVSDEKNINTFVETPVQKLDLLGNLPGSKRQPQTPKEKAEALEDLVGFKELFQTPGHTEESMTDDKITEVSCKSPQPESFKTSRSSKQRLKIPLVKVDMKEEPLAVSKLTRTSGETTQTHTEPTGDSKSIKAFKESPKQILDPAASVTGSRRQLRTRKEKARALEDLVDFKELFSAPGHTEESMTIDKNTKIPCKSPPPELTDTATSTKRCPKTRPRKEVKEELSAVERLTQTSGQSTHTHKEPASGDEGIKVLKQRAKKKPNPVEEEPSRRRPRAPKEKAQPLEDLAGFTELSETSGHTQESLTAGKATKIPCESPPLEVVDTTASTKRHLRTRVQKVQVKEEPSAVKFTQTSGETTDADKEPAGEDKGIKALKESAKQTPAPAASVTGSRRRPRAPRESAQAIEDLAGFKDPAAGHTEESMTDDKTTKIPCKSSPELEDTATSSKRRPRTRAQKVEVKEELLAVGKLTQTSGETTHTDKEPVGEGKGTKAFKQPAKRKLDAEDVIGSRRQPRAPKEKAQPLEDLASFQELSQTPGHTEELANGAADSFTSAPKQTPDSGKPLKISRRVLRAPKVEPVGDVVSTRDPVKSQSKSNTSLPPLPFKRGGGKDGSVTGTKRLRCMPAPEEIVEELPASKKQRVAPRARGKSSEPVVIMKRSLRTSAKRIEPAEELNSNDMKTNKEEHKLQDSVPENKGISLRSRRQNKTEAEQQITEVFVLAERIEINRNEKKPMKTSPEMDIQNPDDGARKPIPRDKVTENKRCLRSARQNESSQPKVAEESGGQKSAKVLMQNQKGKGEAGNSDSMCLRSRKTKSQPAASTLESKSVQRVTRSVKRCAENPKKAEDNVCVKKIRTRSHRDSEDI
UniProt Q14149: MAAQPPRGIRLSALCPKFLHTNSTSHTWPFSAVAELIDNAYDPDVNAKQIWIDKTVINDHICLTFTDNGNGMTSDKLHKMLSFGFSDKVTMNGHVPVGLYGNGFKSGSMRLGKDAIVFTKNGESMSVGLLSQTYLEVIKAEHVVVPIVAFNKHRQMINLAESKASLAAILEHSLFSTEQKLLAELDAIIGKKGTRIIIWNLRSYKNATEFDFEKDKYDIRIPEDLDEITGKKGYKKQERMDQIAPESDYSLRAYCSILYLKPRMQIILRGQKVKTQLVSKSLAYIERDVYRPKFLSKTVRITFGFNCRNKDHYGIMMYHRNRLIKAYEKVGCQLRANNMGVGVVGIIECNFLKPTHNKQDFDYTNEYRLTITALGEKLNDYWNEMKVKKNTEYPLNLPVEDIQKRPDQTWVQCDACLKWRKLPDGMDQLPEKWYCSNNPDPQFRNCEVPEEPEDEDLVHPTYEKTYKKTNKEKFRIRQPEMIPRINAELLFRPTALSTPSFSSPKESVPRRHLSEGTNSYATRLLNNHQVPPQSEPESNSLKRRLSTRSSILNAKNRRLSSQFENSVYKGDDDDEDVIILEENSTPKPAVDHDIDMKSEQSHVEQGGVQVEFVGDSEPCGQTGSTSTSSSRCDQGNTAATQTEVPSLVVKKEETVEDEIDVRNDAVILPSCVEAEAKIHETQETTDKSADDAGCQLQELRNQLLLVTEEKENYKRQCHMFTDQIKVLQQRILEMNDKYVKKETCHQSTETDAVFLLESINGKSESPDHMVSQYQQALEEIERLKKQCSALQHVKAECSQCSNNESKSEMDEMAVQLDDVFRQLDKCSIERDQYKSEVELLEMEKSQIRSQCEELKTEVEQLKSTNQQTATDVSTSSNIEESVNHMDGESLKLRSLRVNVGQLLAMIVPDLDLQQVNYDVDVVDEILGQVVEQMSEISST
UniProt P41218: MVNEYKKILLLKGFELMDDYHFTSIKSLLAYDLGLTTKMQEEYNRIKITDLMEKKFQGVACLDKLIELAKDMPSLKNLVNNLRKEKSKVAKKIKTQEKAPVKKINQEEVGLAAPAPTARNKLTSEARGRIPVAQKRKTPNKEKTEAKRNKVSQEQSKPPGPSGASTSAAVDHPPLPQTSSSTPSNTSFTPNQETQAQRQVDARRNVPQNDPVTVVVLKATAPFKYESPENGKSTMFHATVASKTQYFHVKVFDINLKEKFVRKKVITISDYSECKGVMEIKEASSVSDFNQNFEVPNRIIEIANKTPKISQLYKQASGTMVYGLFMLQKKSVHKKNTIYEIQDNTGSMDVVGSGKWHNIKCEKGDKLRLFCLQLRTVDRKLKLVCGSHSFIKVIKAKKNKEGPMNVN
UniProt Q96T76: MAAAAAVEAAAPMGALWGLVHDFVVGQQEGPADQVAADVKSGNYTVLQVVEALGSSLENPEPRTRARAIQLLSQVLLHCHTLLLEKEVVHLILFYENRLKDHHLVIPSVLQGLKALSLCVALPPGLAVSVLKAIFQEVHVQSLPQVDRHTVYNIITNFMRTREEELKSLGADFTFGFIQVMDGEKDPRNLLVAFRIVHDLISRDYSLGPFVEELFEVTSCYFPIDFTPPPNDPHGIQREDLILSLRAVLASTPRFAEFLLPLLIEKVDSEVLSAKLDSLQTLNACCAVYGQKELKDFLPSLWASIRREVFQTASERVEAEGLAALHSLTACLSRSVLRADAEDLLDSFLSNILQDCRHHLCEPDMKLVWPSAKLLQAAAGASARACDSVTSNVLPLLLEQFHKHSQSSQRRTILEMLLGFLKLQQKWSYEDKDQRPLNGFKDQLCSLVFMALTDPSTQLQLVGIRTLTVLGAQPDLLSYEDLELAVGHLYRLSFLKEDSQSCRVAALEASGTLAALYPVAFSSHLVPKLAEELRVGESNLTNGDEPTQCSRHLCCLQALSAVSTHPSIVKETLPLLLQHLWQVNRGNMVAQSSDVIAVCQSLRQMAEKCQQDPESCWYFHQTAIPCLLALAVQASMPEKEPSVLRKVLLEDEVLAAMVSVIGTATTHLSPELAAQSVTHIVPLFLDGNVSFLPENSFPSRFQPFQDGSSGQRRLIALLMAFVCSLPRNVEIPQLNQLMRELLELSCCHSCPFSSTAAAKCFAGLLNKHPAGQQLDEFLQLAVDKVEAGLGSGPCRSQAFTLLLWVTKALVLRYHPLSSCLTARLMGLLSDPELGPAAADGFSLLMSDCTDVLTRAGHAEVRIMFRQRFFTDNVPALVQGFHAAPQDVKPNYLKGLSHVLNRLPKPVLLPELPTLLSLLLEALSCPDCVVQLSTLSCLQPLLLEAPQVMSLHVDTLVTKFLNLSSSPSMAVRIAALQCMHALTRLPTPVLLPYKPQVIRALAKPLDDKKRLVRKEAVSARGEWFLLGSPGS
UniProt Q96EN8: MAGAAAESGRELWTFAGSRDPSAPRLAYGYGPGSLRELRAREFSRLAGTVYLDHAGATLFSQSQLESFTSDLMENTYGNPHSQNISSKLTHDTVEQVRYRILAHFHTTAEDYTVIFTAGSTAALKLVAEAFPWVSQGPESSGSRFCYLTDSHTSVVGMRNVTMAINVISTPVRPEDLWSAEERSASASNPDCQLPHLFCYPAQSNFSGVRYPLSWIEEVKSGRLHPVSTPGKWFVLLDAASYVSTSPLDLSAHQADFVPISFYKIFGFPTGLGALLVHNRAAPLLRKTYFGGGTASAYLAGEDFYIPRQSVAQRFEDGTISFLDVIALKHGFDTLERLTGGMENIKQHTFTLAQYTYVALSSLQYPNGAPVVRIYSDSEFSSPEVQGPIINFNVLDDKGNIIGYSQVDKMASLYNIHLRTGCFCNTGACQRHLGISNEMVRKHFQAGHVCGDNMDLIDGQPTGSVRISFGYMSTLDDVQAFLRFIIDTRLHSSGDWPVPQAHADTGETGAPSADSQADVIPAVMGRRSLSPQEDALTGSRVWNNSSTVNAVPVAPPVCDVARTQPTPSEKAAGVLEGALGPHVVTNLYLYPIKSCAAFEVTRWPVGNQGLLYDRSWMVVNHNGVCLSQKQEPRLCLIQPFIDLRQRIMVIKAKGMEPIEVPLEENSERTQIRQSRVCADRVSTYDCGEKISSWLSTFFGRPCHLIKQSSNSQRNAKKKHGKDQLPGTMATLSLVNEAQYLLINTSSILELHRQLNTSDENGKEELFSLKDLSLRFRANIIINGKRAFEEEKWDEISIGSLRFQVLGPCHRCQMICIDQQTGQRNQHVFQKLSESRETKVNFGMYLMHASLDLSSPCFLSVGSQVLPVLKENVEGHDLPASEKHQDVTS

Compound: CC1Cc2ccccc2N1C(=O)C1CCCN(C1)C(=O)CCl (mixture of isomers) [TRIM25 ligand 11 (diastereomer mixture)]
Test: probe-labelled cysteine peptide fold change vs DMSO (competition) (log2 fold change); higher = less target engagement (more negative = stronger competition)
Conditions: THP-1, incubation time: 4 h
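Note: competitive chemoproteomic profiling in live THP-1 cells with an iodoacetamide desthiobiotin (IA-DTB) probe, comparing probe-labelled peptide intensities in compound-treated cells against DMSO-treated controls.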

MMADHC_Q9H3L0_148_VECAIQTCPELLRK (UniProt Q9H3L0)
probe-labelled cysteine peptide fold change (10 µM): -0.102
probe-labelled cysteine peptide fold change (50 µM): -0.141

MKI67_P46013_27_SGVDGPHFPLSLSTCLFGR (UniProt P46013)
probe-labelled cysteine peptide fold change (10 µM): -0.0683
probe-labelled cysteine peptide fold change (50 µM): -0.123

MORC3_Q14149_62_TVINDHICLTFTDNGNGMTSDK (UniProt Q14149)
probe-labelled cysteine peptide fold change (10 µM): -0.113
probe-labelled cysteine peptide fold change (50 µM): 0.0366

MON2_Q7Z3U7_592_AELTMAALCGR (UniProt Q7Z3U7)
probe-labelled cysteine peptide fold change (10 µM): 0.00278
probe-labelled cysteine peptide fold change (50 µM): 0.0976

MKI67_P46013_1479_ELFQTPVCTDKPTTHEK (UniProt P46013)
probe-labelled cysteine peptide fold change (10 µM): -0.193
probe-labelled cysteine peptide fold change (50 µM): -0.454

MNDA_P41218_274_KVITISDYSECK (UniProt P41218)
probe-labelled cysteine peptide fold change (10 µM): -0.0141
probe-labelled cysteine peptide fold change (50 µM): 0.0458

MIEF1_Q9NQG6_111_SLQTLPTDSSTFDTDTFCPPRPK (UniProt Q9NQG6)
probe-labelled cysteine peptide fold change (10 µM): 0.134
probe-labelled cysteine peptide fold change (50 µM): 0.0554

MLKL_Q8NB16_437_QQEPLGEDCPSELR (UniProt Q8NB16)
probe-labelled cysteine peptide fold change (10 µM): 0.0359
probe-labelled cysteine peptide fold change (50 µM): -0.184

MRPL21_Q7Z2W9_124_VTSEDLILIGNELDLACGER (UniProt Q7Z2W9)
probe-labelled cysteine peptide fold change (10 µM): 0.0288
probe-labelled cysteine peptide fold change (50 µM): 0.119

MIS18BP1_Q6P0N0_870_HPLECLPGLIQDK (UniProt Q6P0N0)
probe-labelled cysteine peptide fold change (10 µM): 0.0533
probe-labelled cysteine peptide fold change (50 µM): 0.0794

MRPL45_Q9BRJ2_151_DIFIEAHLCLNNSDHDR (UniProt Q9BRJ2)
probe-labelled cysteine peptide fold change (10 µM): -0.648
probe-labelled cysteine peptide fold change (50 µM): -0.159

MRGBP_Q9NV56_38_GPGEAATSPAEETVVWSPEVEVCLFHAMLGHKPVGVNR (UniProt Q9NV56)
probe-labelled cysteine peptide fold change (10 µM): -0.0232
probe-labelled cysteine peptide fold change (50 µM): -0.11

MMS19_Q96T76_331_REVFQTASERVEAEGLAALHSLTACLSR (UniProt Q96T76)
probe-labelled cysteine peptide fold change (10 µM): -0.435
probe-labelled cysteine peptide fold change (50 µM): -0.225

MRPL33_O75394_29_MVSEAGTGFCFNTK (UniProt O75394)
probe-labelled cysteine peptide fold change (10 µM): -0.0739
probe-labelled cysteine peptide fold change (50 µM): -0.084

MICAL2_O94851_1059_PHFIHCK (UniProt O94851)
probe-labelled cysteine peptide fold change (10 µM): 0.00568
probe-labelled cysteine peptide fold change (50 µM): 0.0284

MMS19_Q96T76_502_EDSQSCR (UniProt Q96T76)
probe-labelled cysteine peptide fold change (10 µM): -0.0672
probe-labelled cysteine peptide fold change (50 µM): 0.0671

MRPL37_Q9BZE1_203_ICVQNSTFSATWNR (UniProt Q9BZE1)
probe-labelled cysteine peptide fold change (10 µM): -0.00494
probe-labelled cysteine peptide fold change (50 µM): 0.06

MMACHC_Q9Y4U1_149_ISGVCIHPR (UniProt Q9Y4U1)
probe-labelled cysteine peptide fold change (10 µM): -0.0467
probe-labelled cysteine peptide fold change (50 µM): 0.168

MMS19_Q96T76_819_YHPLSSCLTAR (UniProt Q96T76)
probe-labelled cysteine peptide fold change (10 µM): -0.168
probe-labelled cysteine peptide fold change (50 µM): 0.19

MGST3_O14880_56_VEYPIMYSTDPENGHIFNCIQR (UniProt O14880)
probe-labelled cysteine peptide fold change (10 µM): -0.116
probe-labelled cysteine peptide fold change (50 µM): -0.173

MOCOS_Q96EN8_635_LCLIQPFIDLR (UniProt Q96EN8)
probe-labelled cysteine peptide fold change (10 µM): 0.0357
probe-labelled cysteine peptide fold change (50 µM): 0.0538

MPI_P34949_11_VFPLSCAVQQYAWGK (UniProt P34949)
probe-labelled cysteine peptide fold change (10 µM): -0.0964
probe-labelled cysteine peptide fold change (50 µM): -0.055

MRPL16_Q9NX20_167_CEFEEVQGFLDQVAHK (UniProt Q9NX20)
probe-labelled cysteine peptide fold change (10 µM): -0.0709
probe-labelled cysteine peptide fold change (50 µM): -0.0773
